The numbers were not newly measured in patent US20230382944A1, “NOVEL COCRYSTALS OF DEXAMETHASONE” (Versitech Limited, priority 2022, published 2023), which cites them from elsewhere.

Molecules are shown by their SMILES.

For the data set the following is noted: water, 25° C.; cited from earlier work.

Consider `C[C@@H]1C[C@H]2[C@@H]3CCC4=CC(=O)C=C[C@]4(C)[C@@]3(F)[C@@H](O)C[C@]2(C)[C@@]1(O)C(=O)CO` [DEX, 9-fluoro-11β,17,21-trihydroxy-16α-methylpregna-1,4-diene-3,20-dione, reference compound], for which the aqueous solubility result is “around 90 mg/L”.
